Values from PubChem BioAssay AID1224828 (NIAID, 2016)
Shown is a random part of about 17,000 reagents. Of all reagents, 762 (4.5%) got an active call. 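Active calls include both raised and lowered p65 entry, mostly lowered; wells with fewer than 50 cells lack a z-score.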 Raw values vary from plate to plate and are shown uncorrected. A number with no mark means an inactive call.

Assay: 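Regulators linking TLR4 signalling to p65 nuclear translocation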 (primary screen)
Cells: mouse RAW264.7 G9 macrophage reporter cells (GFP-p65, Tnf promoter-mCherry)
Reagent: siRNA pool against mouse genes, 100 nM
Duration: 2 days siRNA transfection, then 40 min LPS before fixation
Challenge: LPS (Salmonella minnesota R595) at 10 ng/ml
Read-out: 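Microscopy ratio of nuclear to perinuclear-ring GFP-p65 signal, scaled to the plate median; gene score is the average of two replicate robust z-scores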
Reading the numbers: p65 translocation robust z-score: higher = more nuclear NF-kappaB p65 after LPS than the plate median; nuclear/cytoplasmic p65 ratio: higher = more nuclear NF-kappaB p65
Rule for the call: 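Called active when z exceeds 3.3 or falls under -1.56 (median of Tlr4 controls), giving activity score of at least 50; no calls for control wells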
Calls: active = hit (p65 shift raised or lowered); inactive = no clear change

gene knocked down	PubChem SID	p65 translocation robust z-score	nuclear/cytoplasmic p65 ratio, rep 1	nuclear/cytoplasmic p65 ratio, rep 2	low cell count flag
P2rx3	SID315478623	0.16	1.46	1.44	enough cells to score
Parp8	SID315470978	1.37	1.75	2.04	enough cells to score
Apoc3	SID315465470	-0.73	1.53	1.49	enough cells to score
Ccdc77	SID315472895	-0.74	1.3	1.25	enough cells to score
Myf5	SID315468054	1.48	1.59	1.57	enough cells to score
Naip1	SID315468094	0.78	1.81	1.65	enough cells to score
Wdr72	SID315481630	-0.99	1.43	1.4	enough cells to score
Arid5b	SID315474226		1.33	1.4	fewer than 50 cells per well; well left out of scoring
Vmn2r7	SID315481055		1.61	1.69	fewer than 50 cells per well; well left out of scoring
Or5k1	SID315480610	-0.21	1.5	1.46	enough cells to score
Mblac1	SID315481580	-0.54	1.4	1.41	enough cells to score
Ghsr	SID315477523	0.84	1.68	1.65	enough cells to score
Slc22a4	SID315470751	0.58	1.45	1.35	enough cells to score
Pcdhga3	SID315475943	0.92	1.61	1.31	enough cells to score
Eda	SID315466430	0.57	1.38	1.59	enough cells to score
Rtkn	SID315469061	-0.51	1.3	1.2	enough cells to score
Zfp111	SID315471645	0.96	0	1.36	enough cells to score
Lhcgr	SID315467746	-0.06	1.47	1.6	enough cells to score
Casp7	SID315465773	0.26	1.65	1.66	enough cells to score
Tspan6	SID315471575	1.09	1.61	1.22	enough cells to score
Or51s1	SID315480686		1.58	0	fewer than 50 cells per well; well left out of scoring
Rps12	SID315469035		1.3	1.23	fewer than 50 cells per well; well left out of scoring
Ebf1	SID315466421	1.16	1.46	1.51	enough cells to score
Fchsd2	SID315477479	0.03	1.45	1.6	enough cells to score
Snd1	SID315471557	0.62	1.79	1.68	enough cells to score
Gpr180	SID315471898	1.15	1.73	1.44	enough cells to score
Rubcnl	SID315480943		1.36	1.24	fewer than 50 cells per well; well left out of scoring
Bcas1	SID315475423	0.02	1.57	1.67	enough cells to score
Uba6	SID315478887		1.2	1.36	fewer than 50 cells per well; well left out of scoring
Bmp5	SID315465651	0.41	1.66	1.69	enough cells to score
Or5b104	SID315480234		1.48	1.23	fewer than 50 cells per well; well left out of scoring
Pianp	SID315481072	-0.31	1.35	1.48	enough cells to score
Ube2h	SID315469911	-0.07	1.5	1.5	enough cells to score
Tgfbr2	SID315469694	1.06	1.89	1.52	enough cells to score
Nmur2	SID315478023	-0.41	1.51	1.47	enough cells to score
Tagln2	SID315469575	1.69	1.75	1.94	enough cells to score
Tmem25	SID315474278	-0.87	1.49	1.3	enough cells to score
Cd160	SID315471186	-1.04	2.03	1.25	enough cells to score
2410002F23Rik	SID315472751		1.22	1.16	fewer than 50 cells per well; well left out of scoring
Gps2	SID315471448		1.27	1.27	fewer than 50 cells per well; well left out of scoring
Lin7b	SID315469996	0.14	1.72	1.58	enough cells to score
H2-Ab1	SID315467101		0	1.36	fewer than 50 cells per well; well left out of scoring
H2-Ab1	SID315477048		1.4	1.23	fewer than 50 cells per well; well left out of scoring
Opn1sw	SID315465622	1.59	1.71	1.84	enough cells to score
Mgll	SID315470245	0.5	1.5	1.42	enough cells to score
Alg5	SID315472316	-0.04	1.54	1.74	enough cells to score
Vasp	SID315469982	3.25	1.99	1.59	enough cells to score
Snrpc	SID315469362	0.77	1.25	1.32	enough cells to score
Trib2	SID315478124	0.74	1.74	1.53	enough cells to score
Rapgef6	SID315477426	-0.04	1.43	1.51	enough cells to score
Wipf1	SID315477920	-0.26	1.54	1.51	enough cells to score
Eml6	SID315479359		1.58	1.48	fewer than 50 cells per well; well left out of scoring
Aaas	SID315478305	0.39	1.61	1.73	enough cells to score
Pate6	SID315473436	-1.71 (active)	1.32	1.31	enough cells to score
Apc2	SID315470180	-0.39	1.52	1.6	enough cells to score
Pepf	SID315471913	-1.42	1.23	1.09	enough cells to score
Gm5148	SID315481788	-0.19	1.67	1.53	enough cells to score
Zfp623	SID315475634	-1.39	1.18	1.32	enough cells to score
Snta1	SID315469369	-0.13	1.22	1.22	enough cells to score

Only “low cell count flag”, for 6 of the entries above:
Or51s1 [SID315480686] = fewer than 50 cells per well; well left out of scoring
Rps12 [SID315469035] = fewer than 50 cells per well; well left out of scoring
Ebf1 [SID315466421] = enough cells to score
Fchsd2 [SID315477479] = enough cells to score
Snd1 [SID315471557] = enough cells to score
Gpr180 [SID315471898] = enough cells to score
